The target of this test is Myo6 ^YFPCBD (WT) (mouse) (UniProt Q64331). The experiment in a line: MST; ^YFPCBD kept at 100 nM, Myo6 partner titrated (16 two-fold dilutions), 25 °C, 20 mM Bis-Tris pH 6.5, 100 mM KCl, 1 mM DTT, 0.05% Tween-20; both purified.

Amino acid sequences for entries named in this document (tags omitted). Residues count along the entry.
UniProt Q64331, residues 1032-1262: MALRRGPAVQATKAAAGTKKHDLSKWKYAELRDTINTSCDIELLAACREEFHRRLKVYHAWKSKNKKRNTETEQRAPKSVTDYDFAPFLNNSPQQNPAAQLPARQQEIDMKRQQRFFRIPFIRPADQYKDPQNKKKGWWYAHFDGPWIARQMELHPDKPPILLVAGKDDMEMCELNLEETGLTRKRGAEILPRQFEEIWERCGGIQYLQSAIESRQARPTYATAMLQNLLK

This passage reports binding results from article PMC10593786.

These are yes or no findings as the source states them, for the method shown. Some entries that bind do so weakly or less than the wild type. Sequences can lack the tags named with a protein.

B1: Dab2 His-650-end (tDab2) (domain or fragment, UniProt P98082 650-770)
chain: DVKEMFKDFQLRQPPAVPARKGEQTSSGTLSAFASYFNSKVGIPQENADHDDFDANQLLNKINEPPKPAPRQVSLPVTKSTDNAFENPFFKDSFGSSQASVASSQPVSSEMYRDPFGNPFA
Turning to B1, the binding entry is “binds”.
